For assay [1], the target named is T1, forkhead box protein A1 (FOXA1), endogenous in HaCaT cells (human (endogenous in HaCaT)) (UniProt P55317).
T1 sequence: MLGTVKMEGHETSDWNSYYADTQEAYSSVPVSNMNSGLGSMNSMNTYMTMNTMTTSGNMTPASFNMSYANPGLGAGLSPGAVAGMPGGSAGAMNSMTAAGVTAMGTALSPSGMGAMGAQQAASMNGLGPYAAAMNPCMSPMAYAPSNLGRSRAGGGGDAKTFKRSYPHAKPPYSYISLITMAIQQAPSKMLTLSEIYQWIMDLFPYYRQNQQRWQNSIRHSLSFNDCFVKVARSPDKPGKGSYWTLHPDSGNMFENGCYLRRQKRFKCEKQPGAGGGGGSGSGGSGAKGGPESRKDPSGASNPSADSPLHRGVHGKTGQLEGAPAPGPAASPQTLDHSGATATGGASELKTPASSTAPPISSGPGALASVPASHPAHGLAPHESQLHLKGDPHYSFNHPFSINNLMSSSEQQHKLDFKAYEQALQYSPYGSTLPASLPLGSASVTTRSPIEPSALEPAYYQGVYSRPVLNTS
Description: co-IP; endogenous co-IP with a FOXA1 antibody in WT and T603A mutant HaCaT cells treated without or with TGFβ for 3 h; blots for MED15 and pMED15.

By UniProt entry, the sequences of proteins in these tests, tags left out. Where a name states a change or a piece, a line headed by the entry shows the natural chain unless it says otherwise.
UniProt Q96RN5: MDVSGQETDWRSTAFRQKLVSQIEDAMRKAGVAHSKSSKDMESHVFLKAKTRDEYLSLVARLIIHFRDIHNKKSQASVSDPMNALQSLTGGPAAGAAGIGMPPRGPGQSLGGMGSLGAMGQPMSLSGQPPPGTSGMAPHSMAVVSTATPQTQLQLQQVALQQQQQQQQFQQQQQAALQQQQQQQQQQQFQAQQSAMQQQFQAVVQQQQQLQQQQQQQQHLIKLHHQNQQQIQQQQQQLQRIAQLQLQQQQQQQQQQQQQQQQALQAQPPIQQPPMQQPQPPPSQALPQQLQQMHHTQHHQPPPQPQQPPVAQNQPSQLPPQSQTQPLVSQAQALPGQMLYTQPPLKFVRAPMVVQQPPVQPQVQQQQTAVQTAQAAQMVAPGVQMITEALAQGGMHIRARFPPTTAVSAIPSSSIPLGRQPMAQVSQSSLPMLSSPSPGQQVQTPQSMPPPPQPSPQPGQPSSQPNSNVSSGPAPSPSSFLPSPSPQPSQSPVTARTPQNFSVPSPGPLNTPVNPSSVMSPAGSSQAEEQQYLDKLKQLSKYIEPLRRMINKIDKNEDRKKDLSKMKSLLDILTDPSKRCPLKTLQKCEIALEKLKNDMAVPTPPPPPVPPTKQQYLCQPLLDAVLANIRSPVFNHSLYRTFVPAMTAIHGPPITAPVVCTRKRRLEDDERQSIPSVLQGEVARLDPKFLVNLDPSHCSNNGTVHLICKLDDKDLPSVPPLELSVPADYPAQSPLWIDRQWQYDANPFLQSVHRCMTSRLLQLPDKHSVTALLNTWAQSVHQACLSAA

For a further assay, the target named is T2, FLAG-FOXA1 (UniProt P55317).
T2 sequence: T1 sequence
Description: co-IP; FLAG beads to pull down FLAG-FOXA1 in FLAG-FOXA1-overexpressing and control 293T cells.

No constants are given. Whether binding was seen depends on the method and setting. Binding seen in cells or lysates may run through a third protein. Some results given as binding are weak or reduced against the parent protein; the word gives no strength. For some of these results: Where a sequence is shown, tags or fusion partners need not be part of it.

Take “MED15 T603A (endogenous single-site mutant, dephosphorylated mutant) (from UniProt Q96RN5 1-788)”: the binding result in assay [1] was “binds”. In the case of “MED15, endogenous wild type in HaCaT cells (from UniProt Q96RN5 1-788)”, the binding result in assay [1] is “binds”.

In the case of “MED15 phosphorylated at T603 (from UniProt Q96RN5 1-788)”, the binding result in assay [1] is on record as “binds weakly”. With “MED15, in 293T cells (co-IP with FLAG-FOXA1) (from UniProt Q96RN5 1-788)”, the binding entry with FLAG-FOXA1 was “binds”.

The values above are taken from publication PMC12365249.
